{"sequences": {"note": "Protein sequences, listed by entry. Tags and fused reporters are not part of them. Lines headed by an entry give the natural chain unless they say otherwise; changes in a name come on top. Chains listed by the source or under a name are the forms on record and can include a tag or linker.", "sarcoplasmic reticulum Ca2+-ATPase 2a (SERCA2a), endogenous in H9c2 cells (rat (endogenous in H9c2)) (P11507, form named)": "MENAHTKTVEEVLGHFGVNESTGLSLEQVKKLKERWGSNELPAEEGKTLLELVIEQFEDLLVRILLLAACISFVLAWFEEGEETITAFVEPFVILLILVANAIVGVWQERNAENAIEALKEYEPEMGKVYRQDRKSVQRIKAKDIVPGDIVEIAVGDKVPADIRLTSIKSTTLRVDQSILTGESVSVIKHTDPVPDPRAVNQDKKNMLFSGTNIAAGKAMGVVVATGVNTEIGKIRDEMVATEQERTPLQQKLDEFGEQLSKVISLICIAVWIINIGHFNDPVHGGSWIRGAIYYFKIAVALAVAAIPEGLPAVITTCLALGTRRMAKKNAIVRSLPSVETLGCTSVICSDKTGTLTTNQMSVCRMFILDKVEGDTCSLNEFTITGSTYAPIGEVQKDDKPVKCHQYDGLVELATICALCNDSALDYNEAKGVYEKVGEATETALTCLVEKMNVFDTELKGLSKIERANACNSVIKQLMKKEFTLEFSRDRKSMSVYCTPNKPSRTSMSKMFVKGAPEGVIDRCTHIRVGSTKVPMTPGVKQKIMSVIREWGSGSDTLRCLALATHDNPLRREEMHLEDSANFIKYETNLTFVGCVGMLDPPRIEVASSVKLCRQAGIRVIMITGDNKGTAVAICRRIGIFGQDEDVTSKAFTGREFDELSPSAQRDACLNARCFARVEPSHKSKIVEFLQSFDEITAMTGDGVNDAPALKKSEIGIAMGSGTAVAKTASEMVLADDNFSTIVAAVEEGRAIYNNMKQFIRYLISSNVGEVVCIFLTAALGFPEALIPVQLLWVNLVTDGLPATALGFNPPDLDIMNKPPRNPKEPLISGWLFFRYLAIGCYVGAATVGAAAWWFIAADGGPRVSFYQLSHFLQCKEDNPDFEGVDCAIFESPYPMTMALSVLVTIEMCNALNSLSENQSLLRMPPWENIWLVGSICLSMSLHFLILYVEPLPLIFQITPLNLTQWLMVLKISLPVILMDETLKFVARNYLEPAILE"}, "source": "paper PMC7790559", "biological_target": "sarcoplasmic reticulum Ca2+-ATPase 2a (SERCA2a), endogenous in H9c2 cells (rat (endogenous in H9c2)) (UniProt P11507)", "test": "co-IP; H9c2 lysates (cells treated with ISO 1 μmol/L and OPD 0.25, 0.5, 1 μmol/L); precipitated with SERCA2a antibody or IgG as control overnight at 4°C, Protein G magnetic beads, blotted with PLB/p-PLB antibody", "note": "No constants are given. Whether binding was seen depends on the method and setting. Binding seen in cells or lysates may run through a third protein. Some results given as binding are weak or reduced against the parent protein; the word gives no strength."}
{"binder": "phospholamban (PLB), endogenous in H9c2 cells (protein, UniProt P61016 1-52) MEKVQYLTRSAIRRASTIEMPQQARQNLQNLFINFCLILICLLLICIIVMLL", "values": [{"measurement": "binding", "result": "binds"}]}
